Assay results taken from US20260200999A1, “SYNTHETIC TRANSCRIPTION FACTORS” (ETH ZURICH, priority 2022, published 2026).

B1: MTF: fusion of human MTERF1 amino acids 58-399 to RELA amino acids 430-551; prototype HumTAP synthetic transcription factor (protein)
chain: MFGVKCHNTDSEPLKNEDLLKNLLTMGVDIDMARKRQPGVFHRMITNEQDLKMFLLSKGASKEVIASIISRYPRAITRTPENLSKRWDLWRKIVTSDLEIVNILERSPESFFRSNNNLNLENNIKFLYSVGLTRKCLCRLLTNAPRTFSNSLDLNKQMVEFLQAAGLSLGHNDPADFVRKIIFKNPFILIQSTKRVKANIEFLRSTFNLNSEELLVLICGPGAEILDLSNDYARRSYANIKEKLFSLGCTEEEVQKFVLSYPDVIFLAEKKFNDKIDCLMEENISISQIIENPRVLDSSISTLKSRIKELVNAGCNLSTLNITLLSWSKKRYEAKLKKLSRFAQAGEGTLSEALLQLQFDDEDLGALLGNSTDPAVFTDLASVDNSEFQQLLNQGIPVAPHTTEPMLMEYPEAITRLVTGAQRPPDPAPAPLGAPGLPNGLLSGDEDFSSIADMDFSALLSQISS
B2: WT MTERF1: human MTERF1, Uniprot Q99551, including the mitochondrial transfer peptide (protein, listed as Homo sapiens)
chain: MQSLSLGQTSISKGLNYLTIMAPGNLWHMRNNFLFGSRCWMTRFSAENIFKSVSFRLFGVKCHNTDSEPLKNEDLLKNLLTMGVDIDMARKRQPGVFHRMITNEQDLKMFLLSKGASKEVIASIISRYPRAITRTPENLSKRWDLWRKIVTSDLEIVNILERSPESFFRSNNNLNLENNIKFLYSVGLTRKCLCRLLTNAPRTFSNSLDLNKQMVEFLQAAGLSLGHNDPADFVRKIIFKNPFILIQSTKRVKANIEFLRSTFNLNSEELLVLICGPGAEILDLSNDYARRSYANIKEKLFSLGCTEEEVQKFVLSYPDVIFLAEKKFNDKIDCLMEENISISQIIENPRVLDSSISTLKSRIKELVNAGCNLSTLNITLLSWSKKRYEAKLKKLSRFA
B3: Flag-tagged wild-type MTERF1: wild-type human MTERF1 with Flag tag (protein)
chain: MQSLSLGQTSISKGLNYLTIMAPGNLWHMRNNFLFGSRCWMTRFSAENIFKSVSFRLFGVKCHNTDSEPLKNEDLLKNLLTMGVDIDMARKRQPGVFHRMITNEQDLKMFLLSKGASKEVIASIISRYPRAITRTPENLSKRWDLWRKIVTSDLEIVNILERSPESFFRSNNNLNLENNIKFLYSVGLTRKCLCRLLTNAPRTFSNSLDLNKQMVEFLQAAGLSLGHNDPADFVRKIIFKNPFILIQSTKRVKANIEFLRSTFNLNSEELLVLICGPGAEILDLSNDYARRSYANIKEKLFSLGCTEEEVQKFVLSYPDVIFLAEKKFNDKIDCLMEENISISQIIENPRVLDSSISTLKSRIKELVNAGCNLSTLNITLLSWSKKRYEAKLKKLSRFADYKDHDGDYKDHDIDYKDDDDK
modifications: Flag tag
B4: Flag-tagged MTF: MTF with C-terminal Flag tag (protein)
chain: MFGVKCHNTDSEPLKNEDLLKNLLTMGVDIDMARKRQPGVFHRMITNEQDLKMFLLSKGASKEVIASIISRYPRAITRTPENLSKRWDLWRKIVTSDLEIVNILERSPESFFRSNNNLNLENNIKFLYSVGLTRKCLCRLLTNAPRTFSNSLDLNKQMVEFLQAAGLSLGHNDPADFVRKIIFKNPFILIQSTKRVKANIEFLRSTFNLNSEELLVLICGPGAEILDLSNDYARRSYANIKEKLFSLGCTEEEVQKFVLSYPDVIFLAEKKFNDKIDCLMEENISISQIIENPRVLDSSISTLKSRIKELVNAGCNLSTLNITLLSWSKKRYEAKLKKLSRFAQAGEGTLSEALLQLQFDDEDLGALLGNSTDPAVFTDLASVDNSEFQQLLNQGIPVAPHTTEPMLMEYPEAITRLVTGAQRPPDPAPAPLGAPGLPNGLLSGDEDFSSIADMDFSALLSQISSDYKDHDGDYKDHDIDYKDDDDK
modifications: C-terminal Flag tag

These molecules were tested on Hela cells (assay: Intracellular localization by anti-Flag confocal microscopy). Conditions: transfected Hela cells, anti-Flag-tag antibody.
Format: cell-based, human
In the case of B1, the intracellular localization is reported as “diffused within a cell, including the nucleus”. B2 was tested, and the intracellular localization was “localized only to the mitochondria”. For B3, the intracellular localization was “confined to mitochondria”. With B4 the intracellular localization was “distributed throughout the whole cell, including the nucleus, without obvious localization to the mitochondria”.
